Source: patent US20170100458A1
Results are given in words; binding and its absence hold for the method and conditions named. In cells and extracts the contact can be indirect. Some results given as binding are weak or reduced against the parent protein; the word gives no strength. Tags and fused reporters may be left off the sequences shown.

By UniProt entry, the sequences of proteins in these tests, tags left out. Residues count along the entry.
UniProt P09405, residues 2-707: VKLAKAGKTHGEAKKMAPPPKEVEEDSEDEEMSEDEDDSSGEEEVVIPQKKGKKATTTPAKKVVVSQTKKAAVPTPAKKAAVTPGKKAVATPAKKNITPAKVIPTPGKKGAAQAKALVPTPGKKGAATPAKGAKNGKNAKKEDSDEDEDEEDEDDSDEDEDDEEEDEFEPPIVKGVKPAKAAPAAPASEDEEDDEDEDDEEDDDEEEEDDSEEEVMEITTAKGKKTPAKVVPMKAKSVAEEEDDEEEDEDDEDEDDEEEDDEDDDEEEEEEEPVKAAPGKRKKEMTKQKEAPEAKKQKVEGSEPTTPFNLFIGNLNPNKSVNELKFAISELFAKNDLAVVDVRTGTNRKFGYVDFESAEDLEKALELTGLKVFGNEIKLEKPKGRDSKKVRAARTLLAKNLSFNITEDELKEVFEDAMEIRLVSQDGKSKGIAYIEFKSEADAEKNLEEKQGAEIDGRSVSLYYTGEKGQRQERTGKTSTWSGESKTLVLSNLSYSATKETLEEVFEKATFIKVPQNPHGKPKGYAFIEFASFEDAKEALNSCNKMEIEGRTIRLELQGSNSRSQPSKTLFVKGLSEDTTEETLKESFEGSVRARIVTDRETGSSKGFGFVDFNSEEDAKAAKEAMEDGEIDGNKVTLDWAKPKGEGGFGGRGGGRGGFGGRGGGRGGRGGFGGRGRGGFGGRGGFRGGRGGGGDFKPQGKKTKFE

Biological target: Nucleolin (endogenous, MDPC-23 cells) (mouse) (UniProt P09405)
Assay: co-immunoprecipitation from MDPC-23 cells transfected with flag-tagged CPNE7, western blot with anti-Nucleolin; immunofluorescence co-localization

B1: flag-tagged CPNE7 (exogenous, DDK (Flag)-tagged CPNE7, NM_153636) (protein, human, UniProt Q9UBL6-2 1-558, looked up, not shown: small tags and cut ends)
chain: MSAGSERGAAATPGGLPAPCASKVELRLSCRHLLDRDPLTKSDPSVALLQQAQGQWVQVGRTEVVRSSLHPVFSKVFTVDYYFEEVQRLRFEVYDTHGPSGFSCQEDDFLGGMECTLGQIVAQKKVTRPLLLKFGRNAGKSTITVIAEDISGNNGYVELSFRARKLDDKDLFSKSDPFLELYRVNDDQGLQLVYRTEVVKNNLNPVWEAFKVSLSSLCSCEETRPLKCLVWDYDSRGKHDFIGEFSTTFEEMQKAFEEGQAQWDCVNPKYKQKRRSYKNSGVVVLADLKFHRVYSFLDYIMGGCQIHFTVAIDFTASNGDPRNSCSLHYINPYQPNEYLKALVSVGEICQDYDSDKRFSALGFGARIPPKYEVSHDFAINFNPEDDECEGIQGVVEAYQNCLPRVQLYGPTNVAPIISKVARVAAAEESTGKASQYYILLILTDGVVTDMADTREAIVRASRLPMSIIIVGVGNADFTDMQVLDGDDGVLRSPRGEPALRDIVQFVPFRELKNASPAALAKCVLAEVPKQVVEYYSHRGLPPRSLGVPAGEASPGCTP
- binding: binds
